Results of single-concentration screens

The values are deposited in ChEMBL (CHEMBL3988442, “University of Dundee, Small-Polar-MMV Screening Library” (2021)).

Mtb glucose medium: 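Whole-cell growth test on Mycobacterium tuberculosis, read after 3 days in glucose-containing 7H9 medium; the read-out is not stated. Compounds at 50 µM. The record gives no direction; compounds that gave an IC50 in retests scored well above the rest, so higher reads as more growth inhibition. Of about 69,000 compounds tested this way, about 760 (1.1%) reached 50% or more in at least one test.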
Mtb cholesterol medium: 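Phenotypic screen: M. tuberculosis growth, cholesterol and DPPC medium, 4 days; the read-out is not stated. Tested at 50 µM. Higher reads as more growth inhibition (inferred: compounds with an IC50 in retests scored well above the rest). About 69,000 compounds were tested under these conditions; 0.54% (about 370) showed 50% or more at least once.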

The filed quantity is “Percent Effect” (%).
How 0% and 100% were set is not recorded. Most values in the screen are low, and negative values occur.
This is an unselected part of the compounds tested.
Two or more numbers in one place are separate tests of the same structure; such repeats can differ widely.

| compound | Mtb glucose medium | Mtb cholesterol medium |
|---|---|---|
| `CC(c1nnc(-c2ccccc2)o1)N1CCc2cncnc2C1` (stereo not given) | 0.6721 | 4.841 |
| `Cc1nnnn1-c1ccc(CC(=O)N2CCOCC(O)C2)cc1` (stereo not given) | 3.942 | 11.91 |
| `Cc1cc(CN(C)C(=O)c2cccc(N3CCCC3=O)c2)no1` | -28.17 | -18.33 |
| `Cc1cccc(C2(CNC(=O)CCN3C(=O)CCC3=O)CCCC2)c1` | 1.594 | 3.042 |
| `CCCN1C(=O)CC2(CCCNC2)C1=O.Cl` (stereo not given) | -6.58 | 16.28 |
| `CN1CCc2nc(C3CCN(C(=O)CCC4CCCC4)CC3)ncc2C1` | 43.09 | 0.7435 |
| `Cc1noc(C)c1C(=O)Nc1ccc2ncn(CC(C)C)c(=O)c2c1` | -65.47 | -34.75 |
| `CC(C)OC(=O)NCc1ccc(NCc2cnn(C(C)(C)C)c2)cc1` | 15.09 | 9.642 |
| `Cc1ccc(NC2CCN(C(=O)c3cccnc3O)CC2)nn1` | 4.337 | -10.68 |
| `CO[C@H]1CN(Cc2cc(F)ccc2F)CC[C@@]12CCCO2` | -15.64 | -3.004 |
| `O=C(CN1CCC(C(=O)c2cc(F)ccc2F)CC1)NC1CC1` | 5.011 | 2.177 |
| `Cc1ccccc1-c1cncc(C2CCN(S(=O)(=O)N(C)C)CC2)n1` | 15.22 | 9.626 |
| `Cc1nnc(NCC2(c3ccccc3)CCC2)c(C#N)c1C` | 6.75 and 39.96 | 19.87 |
| `[H][C@@]12CS(=O)(=O)C[C@]1([H])N(Cc1cccc(O)c1)CCN2CC1CC1` | -2.96 | 4.28 and -15.28 |
| `O=C(CCc1nnc(-c2ccccc2)o1)N1CCCC1c1ccccn1` (stereo not given) | 19.47 | 12.43 |
| `O=S1(=O)CCC(CNS(=O)(=O)N2CCc3ccccc3C2)C1` (stereo not given) | -36.4 | -19.48 |
| `O=C(O)C(F)(F)F.O=C(O)C(F)(F)F.[H][C@@]12CN(C(=O)c3ccco3)C[C@]1([H])OCCN2CCN1CCCC1` | -2.65 | 5.013 |
| `O=C(O)C(F)(F)F.[H][C@]12CCN(Cc3ccc(OC)cc3)C[C@@]1([H])OCCN(S(C)(=O)=O)C2` | -2.086 and -0.5891 | -4.809 |
| `CC(Cc1cn(CCc2n[nH]c(=O)[nH]2)nn1)c1ccccc1` (stereo not given) | 0.05902 and -1.82 | -6.736 |
| `Cc1cnn(CC2CCCCN2C(=O)c2ccc3[nH]nnc3c2)c1` (stereo not given) | -11.03 | 8.338 |
| `Cc1ccnc(NCc2cn3c(C)csc3n2)n1` | -43.59 | -6.915 |
| `COc1cccc(N2CC3(CCN(c4cnccn4)C3)CC2=O)c1` (stereo not given) | -5.898 and 0.01477 | -19.68 and 11.88 |
| `CCn1cnnc1CNC(=O)N1CCN(CCc2ccccc2)CC1` | -18.06 | 1.044 |
| `Cc1ccc(-c2noc(CN3CCc4cncnc4C3)n2)cc1` | -6.773 | 15.24 |
| `CC(C)(C)c1nc2cc(NC(=O)Cn3ccc(=O)[nH]c3=O)ccc2o1` | -3.25 and 17.7 | 3.659 |
| `CC(C)NC(=O)c1sccc1N(C)S(=O)(=O)c1ccc(Cl)cc1` | -10.77 and 2.425 | -23.34 |
| `O=S(=O)(NCC1CCN(c2cnccn2)CC1)c1ccc(F)c(Cl)c1` | 41.92 | 4.826 |
| `CC(c1ccncc1)N1Cc2nc(N(C)C)ncc2C1=O` (stereo not given) | 18.39 | -7.339 |
| `Cc1noc(C)c1CNCC1COCc2c(-c3ccoc3)nnn2C1.O=C(O)C(F)(F)F` (stereo not given) | 24.42 | -1.272 |
| `N#CCc1ccc(NC(=O)CNc2ccc(Br)cc2F)cc1` | 37.58 | 12.52 and -4.572 |
| `Cc1nsc(N2CCN(CC(=O)NCc3cccnc3)CC2)n1` | 0.4822 | 1.905 and 0.4869 |
| `Cc1ccc(S(=O)(=O)N(CC2CCOC2)C2CC2)cc1N(C)C` (stereo not given) | 12.96 | -26.89 |
| `CC(C)c1ocnc1C(=O)N1CCC2(CC1)OCCO2` | 18.73 and 6.06 | 24.22 |
| `CC(C)n1ccc(=O)nc1SC1CCN(c2ccccc2F)C1=O` (stereo not given) | 4.253 | -12.29 |
| `CCOc1ccc(S(=O)(=O)NCCCc2ccc(N(C)C)cc2)cc1C` | 32.35 and 15.59 | -7.879 |
| `C=C(C)COc1ccccc1C(=O)N1CCC(C(=O)NCC)C1` (stereo not given) | 19.84 and -4.46 | 4.03 |
| `O=C1CN(Cc2cn(CC3CCCN(C4CCSCC4)C3)nn2)CCN1` (stereo not given) | -5.614 and -2.954 | -15.17 |
| `CCC(=O)N1CCC2(CC1)c1nc[nH]c1CCN2S(C)(=O)=O` | 14.83 and -6.648 | 1.939 |
| `[H][C@]12CN(C(=O)c3scnc3C)CC[C@@]1(O)CCN(C(=O)N1CCCC1)C2` | -1.998 | 4.504 |
| `O=C(c1ccc2cccc(F)c2n1)N1CCN(CCn2cccc2)CC1` | -34.09 and 1.461 | -0.02761 |
| `Cc1nn(C)c2ncc(NC(=O)N3CCNC(=O)C3)cc12` | 12.53 | 26.05 |
| `Cc1csc(N2CCCN(C(=O)c3c(C)oc(C)c3C)CC2)n1` | 1.934 | 4.106 |
| `OC1(Cn2ccc3ncccc32)CCN(Cc2cccs2)CC1` | 12.23 | -1.655 |
| `CC(C)c1cc(C(=O)N2CCOC3(CCNCC3)C2)no1.O=C(O)C(F)(F)F` | 0.0936 and -1.995 | 5.777 |
| `CCc1nnsc1C(=O)NCCCC(CC)(CC)C1OCCO1` | -16.93 and -0.06815 | -26.82 |
| `CCC[C@H]1CN(S(=O)(=O)c2cc(C)ccc2C)C[C@@H]1N` | -5.483 | 11.23 |
| `COc1ccc2c(c1)OCC(C(=O)NCc1nc3c(s1)CCCC3)C2` (stereo not given) | 10.32 | 8.113 |
| `CSc1cccc(CN2CCC(CCC(=O)NCCN(C)C)CC2)c1` | -1.098 and 22.69 | 17.05 and -8.818 |
| `COC[C@@H]1CCC[C@]12CN(S(=O)(=O)c1cn(C)cn1)CCO2` | 21.44 | 22.22 |
| `Cc1cc(NC(=O)Cn2cc(C#N)c(=O)c3cc(Br)ccc32)no1` | -8.048 | 1.533 |
| `CN(Cc1cnc(N)nc1)C(=O)C1CCN(C(=O)C2CCCC2)CC1` | 1.801 and -1.88 | 12.91 |
| `O=C(NCCNc1cccnc1)C(c1cccnc1)N1CCCC1` (stereo not given) | 14.97 | 5.392 |
| `CC(C)Oc1ncccc1CNC(=O)c1ccccn1` | 16.25 | -17.46 |
| `Cc1nn(CC(F)F)c2c1c(C(F)F)cc(=O)n2CC(=O)O` | -8.02 | -27.13 |
| `COc1ccc(OC)c(S(=O)(=O)NCC2(OC)CCSC2)c1` (stereo not given) | 9.444 | 10.57 |
| `CCc1nc2c(c(N(C)Cc3nncn3CCOC)n1)CCNCC2` | -9.684 | 9.312 |

The first 7 entries again:

compound	Mtb glucose medium	Mtb cholesterol medium
CC(c1nnc(-c2ccccc2)o1)N1CCc2cncnc2C1 (stereo not given)	0.6721	4.841
Cc1nnnn1-c1ccc(CC(=O)N2CCOCC(O)C2)cc1 (stereo not given)	3.942	11.91
Cc1cc(CN(C)C(=O)c2cccc(N3CCCC3=O)c2)no1	-28.17	-18.33
Cc1cccc(C2(CNC(=O)CCN3C(=O)CCC3=O)CCCC2)c1	1.594	3.042
CCCN1C(=O)CC2(CCCNC2)C1=O.Cl (stereo not given)	-6.58	16.28
CN1CCc2nc(C3CCN(C(=O)CCC4CCCC4)CC3)ncc2C1	43.09	0.7435
Cc1noc(C)c1C(=O)Nc1ccc2ncn(CC(C)C)c(=O)c2c1	-65.47	-34.75